# Measured values reported in the supplement of paper PMC8728848.
# This is one part of the list.
# Columns and labels:
# Test in all cases: glycan array binding signal (z-score within array); higher = stronger binding
# Details in all cases: glycan notation: IUPAC condensed, linker removed
# [1] = biological target: Neu5Ac(a2-3)Gal(b1-4)GlcNAc(b1-6)GalNAc
# Summary of the method: (§1)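 Glycan array binding is given as a within-array Z-score, which can be read as non-binding when negative. The arrays, 3228 of them, came from the Consortium for Functional Glycomics database and were retained only where the protein sequence was available. Z-scores were averaged across arrays of the same protein sequence at different concentrations or buffers and across linkers.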
# [2] = biological target: Neu5Ac(a2-3)Gal(b1-4)GlcNAc(b1-6)[Gal(b1-3)]GalNAc
# Summary of the method: as §1
# [3] = biological target: Neu5Ac(a2-3)Gal(b1-4)GlcNAc(b1-6)[Neu5Ac(a2-3)Gal(b1-3)]GalNAc
# Summary of the method: as §1
# [4] = biological target: Neu5Ac(a2-3)Gal(b1-4)GlcNAc6S
# Summary of the method: as §1
# [5] = biological target: Neu5Ac(a2-3)Gal(b1-4)[Fuc(a1-3)]GlcNAc
# Summary of the method: as §1
# [6] = biological target: Neu5Ac(a2-3)Gal(b1-4)[Fuc(a1-3)]GlcNAc(b1-2)Man
# Summary of the method: as §1
# [7] = biological target: Neu5Ac(a2-3)Gal(b1-4)[Fuc(a1-3)]GlcNAc(b1-3)Gal
# Summary of the method: as §1
# [8] = biological target: Neu5Ac(a2-3)Gal(b1-4)[Fuc(a1-3)]GlcNAc(b1-3)Gal(b1-4)GlcNAc
# Summary of the method: as §1
# [9] = biological target: Neu5Ac(a2-3)Gal(b1-4)[Fuc(a1-3)]GlcNAc(b1-3)Gal(b1-4)[Fuc(a1-3)]GlcNAc(b1-3)Gal(b1-4)[Fuc(a1-3)]GlcNAc
# Summary of the method: as §1
# [10] = biological target: Neu5Ac(a2-3)Gal(b1-4)[Fuc(a1-3)]GlcNAc(b1-3)GalNAc
# Summary of the method: as §1
# [11] = biological target: Neu5Ac(a2-3)Gal(b1-4)[Fuc(a1-3)]GlcNAc(b1-6)[Gal(b1-3)]GalNAc
# Summary of the method: as §1
# [12] = biological target: Neu5Ac(a2-3)Gal(b1-4)[Fuc(a1-3)]GlcNAc(b1-6)[Neu5Ac(a2-3)Gal(b1-3)]GalNAc
# Summary of the method: as §1
# [13] = biological target: Neu5Ac(a2-3)Gal(b1-4)[Fuc(a1-3)]GlcNAc6S
# Summary of the method: as §1
# [14] = biological target: Neu5Ac(a2-3)Gal6S(b1-4)GlcNAc
# Summary of the method: as §1
# [15] = biological target: Neu5Ac(a2-3)Gal6S(b1-4)[Fuc(a1-3)]GlcNAc
# Summary of the method: as §1
# Neu5Ac(a2-3)GalNAc = biological target: Neu5Ac(a2-3)GalNAc
# Summary of the method: as §1
# [16] = biological target: Neu5Ac(a2-3)GalNAc(b1-4)GlcNAc
# Summary of the method: as §1
# [17] = biological target: Neu5Ac(a2-3)[GalNAc(b1-4)]Gal(b1-4)Glc
# Summary of the method: as §1
# [18] = biological target: Neu5Ac(a2-3)[GalNAc(b1-4)]Gal(b1-4)GlcNAc
# Summary of the method: as §1
# [19] = biological target: Neu5Ac(a2-3)[GalNAc(b1-4)]Gal(b1-4)GlcNAc(b1-3)GalNAc
# Summary of the method: as §1
# [20] = biological target: Neu5Ac(a2-3)[Neu5Ac(a2-6)]GalNAc
# Summary of the method: as §1
# Neu5Ac(a2-6)Gal = biological target: Neu5Ac(a2-6)Gal
# Summary of the method: as §1
# [21] = biological target: Neu5Ac(a2-6)Gal(b1-3)GlcNAc(b1-3)[Gal(b1-4)GlcNAc(b1-6)]Gal(b1-4)Glc
# Summary of the method: as §1
# Neu5Ac(a2-6)Gal(b1-4)Glc = biological target: Neu5Ac(a2-6)Gal(b1-4)Glc
# Summary of the method: as §1
# [22] = biological target: Neu5Ac(a2-6)Gal(b1-4)GlcNAc
# Summary of the method: as §1
# [23] = biological target: Neu5Ac(a2-6)Gal(b1-4)GlcNAc(b1-2)Man
# Summary of the method: as §1
# [24] = biological target: Neu5Ac(a2-6)Gal(b1-4)GlcNAc(b1-2)Man(a1-3)Man(b1-4)GlcNAc(b1-4)GlcNAc
# Summary of the method: as §1
# [25] = biological target: Neu5Ac(a2-6)Gal(b1-4)GlcNAc(b1-2)Man(a1-3)[Gal(b1-4)GlcNAc(b1-2)Man(a1-6)]Man(b1-4)GlcNAc(b1-4)GlcNAc
# Summary of the method: as §1
# [26] = biological target: Neu5Ac(a2-6)Gal(b1-4)GlcNAc(b1-2)Man(a1-3)[GlcNAc(b1-2)Man(a1-6)]Man(b1-4)GlcNAc(b1-4)GlcNAc
# Summary of the method: as §1
# [27] = biological target: Neu5Ac(a2-6)Gal(b1-4)GlcNAc(b1-2)Man(a1-3)[GlcNAc(b1-4)][Neu5Ac(a2-6)Gal(b1-4)GlcNAc(b1-2)Man(a1-6)]Man(b1-4)GlcNAc(b1-4)GlcNAc
# Summary of the method: as §1
# [28] = biological target: Neu5Ac(a2-6)Gal(b1-4)GlcNAc(b1-2)Man(a1-3)[Man(a1-6)]Man(b1-4)GlcNAc(b1-4)GlcNAc
# Summary of the method: as §1
# [29] = biological target: Neu5Ac(a2-6)Gal(b1-4)GlcNAc(b1-2)Man(a1-3)[Neu5Ac(a2-3)Gal(b1-4)GlcNAc(b1-2)Man(a1-6)]Man(b1-4)GlcNAc(b1-4)GlcNAc
# Summary of the method: as §1
# [30] = biological target: Neu5Ac(a2-6)Gal(b1-4)GlcNAc(b1-2)Man(a1-3)[Neu5Ac(a2-6)Gal(b1-4)GlcNAc(b1-2)Man(a1-6)]Man(b1-4)GlcNAc(b1-4)GlcNAc
# Summary of the method: as §1
# [31] = biological target: Neu5Ac(a2-6)Gal(b1-4)GlcNAc(b1-2)Man(a1-3)[Neu5Ac(a2-6)Gal(b1-4)GlcNAc(b1-2)Man(a1-6)]Man(b1-4)GlcNAc(b1-4)[Fuc(a1-6)]GlcNAc
# Summary of the method: as §1
# [32] = biological target: Neu5Ac(a2-6)Gal(b1-4)GlcNAc(b1-2)Man(a1-6)Man(b1-4)GlcNAc(b1-4)GlcNAc
# Summary of the method: as §1
# [33] = biological target: Neu5Ac(a2-6)Gal(b1-4)GlcNAc(b1-2)Man(a1-6)[Gal(b1-4)GlcNAc(b1-2)Man(a1-3)]Man(b1-4)GlcNAc(b1-4)GlcNAc
# Summary of the method: as §1
# [34] = biological target: Neu5Ac(a2-6)Gal(b1-4)GlcNAc(b1-2)Man(a1-6)[GlcNAc(b1-2)Man(a1-3)]Man(b1-4)GlcNAc(b1-4)GlcNAc
# Summary of the method: as §1
# [35] = biological target: Neu5Ac(a2-6)Gal(b1-4)GlcNAc(b1-2)Man(a1-6)[Man(a1-3)]Man(b1-4)GlcNAc(b1-4)GlcNAc
# Summary of the method: as §1
# [36] = biological target: Neu5Ac(a2-6)Gal(b1-4)GlcNAc(b1-2)[Neu5Ac(a2-6)Gal(b1-4)GlcNAc(b1-4)]Man(a1-3)[GlcNAc(b1-4)][Neu5Ac(a2-6)Gal(b1-4)GlcNAc(b1-2)[Neu5Ac(a2-6)Gal(b1-4)GlcNAc(b1-6)]Man(a1-6)]Man(b1-4)GlcNAc(b1-4)GlcNAc
# Summary of the method: as §1
# [37] = biological target: Neu5Ac(a2-6)Gal(b1-4)GlcNAc(b1-2)[Neu5Ac(a2-6)Gal(b1-4)GlcNAc(b1-4)]Man(a1-3)[GlcNAc(b1-4)][Neu5Ac(a2-6)Gal(b1-4)GlcNAc(b1-4)Man(a1-6)]Man(b1-4)GlcNAc(b1-4)GlcNAc
# Summary of the method: as §1
# [38] = biological target: Neu5Ac(a2-6)Gal(b1-4)GlcNAc(b1-2)[Neu5Ac(a2-6)Gal(b1-4)GlcNAc(b1-6)]Man(a1-6)[Neu5Ac(a2-6)Gal(b1-4)GlcNAc(b1-2)Man(a1-3)][GlcNAc(b1-4)]Man(b1-4)GlcNAc(b1-4)GlcNAc
# Summary of the method: as §1
# [39] = biological target: Neu5Ac(a2-6)Gal(b1-4)GlcNAc(b1-3)Gal(b1-3)GlcNAc
# Summary of the method: as §1
# [40] = biological target: Neu5Ac(a2-6)Gal(b1-4)GlcNAc(b1-3)Gal(b1-4)GlcNAc
# Summary of the method: as §1
# [41] = biological target: Neu5Ac(a2-6)Gal(b1-4)GlcNAc(b1-3)Gal(b1-4)GlcNAc(b1-2)Man(a1-3)[Neu5Ac(a2-6)Gal(b1-4)GlcNAc(b1-3)Gal(b1-4)GlcNAc(b1-2)Man(a1-6)]GalNAc
# Summary of the method: as §1
# [42] = biological target: Neu5Ac(a2-6)Gal(b1-4)GlcNAc(b1-3)Gal(b1-4)GlcNAc(b1-3)Gal(b1-4)GlcNAc
# Summary of the method: as §1
# [43] = biological target: Neu5Ac(a2-6)Gal(b1-4)GlcNAc(b1-3)Gal(b1-4)GlcNAc(b1-3)Gal(b1-4)GlcNAc(b1-2)Man(a1-3)[Neu5Ac(a2-6)Gal(b1-4)GlcNAc(b1-3)Gal(b1-4)GlcNAc(b1-3)Gal(b1-4)GlcNAc(b1-2)Man(a1-6)]GalNAc
# Summary of the method: as §1
binder,measurement,setting,value
CM2 (Cordyceps militaris) (protein) MEIAEQNVGKSCAIVNLIPPKEGSNIWTAKQVTIARNLPPNRGTGRHQIDWSFGPVKVTGYVDTTNWEIGVTVSIMGIDLGTVYGNLRDGVVLNVDLFLAKGQVRFYLKNGNEVWVHLSVEIRFDGKFEGDYKIITV,glycan array binding signal (z-score),[1],0.704
same,glycan array binding signal (z-score),[2],-0.406
same,glycan array binding signal (z-score),[3],-0.229
same,glycan array binding signal (z-score),[4],-0.128
same,glycan array binding signal (z-score),[5],0.203
same,glycan array binding signal (z-score),[6],-1.33
same,glycan array binding signal (z-score),[7],0.036
same,glycan array binding signal (z-score),[8],0.43
same,glycan array binding signal (z-score),[9],0.031
same,glycan array binding signal (z-score),[10],-0.166
same,glycan array binding signal (z-score),[11],-0.121
same,glycan array binding signal (z-score),[12],-0.027
same,glycan array binding signal (z-score),[13],-0.494
same,glycan array binding signal (z-score),[14],-0.419
same,glycan array binding signal (z-score),[15],-0.639
same,glycan array binding signal (z-score),Neu5Ac(a2-3)GalNAc,0.58
same,glycan array binding signal (z-score),[16],0.487
same,glycan array binding signal (z-score),[17],0.858
same,glycan array binding signal (z-score),[18],-0.887
same,glycan array binding signal (z-score),[19],0.919
same,glycan array binding signal (z-score),[20],-0.254
same,glycan array binding signal (z-score),Neu5Ac(a2-6)Gal,1.05
same,glycan array binding signal (z-score),[21],-0.678
same,glycan array binding signal (z-score),Neu5Ac(a2-6)Gal(b1-4)Glc,-1.05
same,glycan array binding signal (z-score),[22],-0.125
same,glycan array binding signal (z-score),[23],2.54
same,glycan array binding signal (z-score),[24],-1.05
same,glycan array binding signal (z-score),[25],-0.596
same,glycan array binding signal (z-score),[26],1.54
same,glycan array binding signal (z-score),[27],-0.495
same,glycan array binding signal (z-score),[28],-0.907
same,glycan array binding signal (z-score),[29],-0.384
same,glycan array binding signal (z-score),[30],-0.511
same,glycan array binding signal (z-score),[31],-0.646
same,glycan array binding signal (z-score),[32],-0.021
same,glycan array binding signal (z-score),[33],0.098
same,glycan array binding signal (z-score),[34],-0.185
same,glycan array binding signal (z-score),[35],-0.151
same,glycan array binding signal (z-score),[36],-0.02
same,glycan array binding signal (z-score),[37],1.04
same,glycan array binding signal (z-score),[38],-0.924
same,glycan array binding signal (z-score),[39],-0.267
same,glycan array binding signal (z-score),[40],-0.874
same,glycan array binding signal (z-score),[41],-1.31
same,glycan array binding signal (z-score),[42],0.418
same,glycan array binding signal (z-score),[43],-0.134

# Some of the entries above in a different format.
binder	measurement	setting	value
CM2 (Cordyceps militaris) (protein) MEIAEQNVGKSCAIVNLIPPKEGSNIWTAKQVTIARNLPPNRGTGRHQIDWSFGPVKVTGYVDTTNWEIGVTVSIMGIDLGTVYGNLRDGVVLNVDLFLAKGQVRFYLKNGNEVWVHLSVEIRFDGKFEGDYKIITV	glycan array binding signal (z-score)	[41]	-1.31
same	glycan array binding signal (z-score)	[42]	0.418
